This is an account of results in patent US20060216299A1, “Cell cycle targets and peptides” (Rigel Pharmaceuticals, Inc., priority 2002, published 2006).

The test system of the series is A549 cell lysates. Nature of the series: Affinity extraction with biotinylated peptides; MALDI-TOF MS, LC/MS/MS, Western blotting. It is filed as binding, human. To be noted: biotinylated peptide against inactive mutant control.
For “GRGCIFRWRRGLRGMMRLFK (GFP fusion) [#41, anti-proliferative peptide tested as GFP fusion]”, the “binding partners identified by affinity extraction” value (from here on “binding partners identified”) was “beta tubulin, importin beta subunits 1, 2, and 7, annexin II, calpactin/S-100, and the chaperonin BiP/GRP78”.

As to “RLRRICSGILLIRRILGIFVRPVRP (GMDELYKEEAAKARLRRICSGILLIRRILGIFV; N-terminal biotin) [#88, Peptide 35, also called peptide 88; tested as GFP fusion]”, the “binding partners identified” value was “beta-tubulin, actin, importin beta, and restin”.

On to “RWDPTRLLRFRFLRMLVRRSRPVRP (GFP fusion) [#40, anti-proliferative peptide tested as GFP fusion]”, for which the “binding partners identified” value was “beta tubulin, importin beta 1 and beta 3, elongation factor tu, and ATP/ADP carrier protein, and a zinc finger protein”.
